Inconclusive results, whose numbers are uncertain, are shown with a selection of clear calls. Potencies of inconclusive entries are doubtful fits and often do not repeat. The source made the active and inactive calls. Calls come from the whole dose curve; as a rule, active = well fitted inhibition curve with a large enough effect; inconclusive = small, poorly fitted or top-dose-only effect; inactive = no such curve, though single readings can be large or run the other way.
target: N-terminal Xaa-Pro-Lys N-methyltransferase 1 (Homo sapiens) (UniProt Q9BV86); test: Orthogonal qHTS for Inhibitors of N-terminal methyltransferase 1 (NTMT1): ThioGlo Assay; details: NTMT1 SAHH-coupled ThioGlo fluorescence, 30 min; series mostly up to 84.5 µM; activity, negative = inhibition: at the top concentration
Procedure, shortened: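 ThioGlo3 (15 uM) detects the thiol product formed by SAHH (10 uM) from SAM (100 uM) turnover by 125 nM NTMT1 (all final), with compounds in concentration series. Readings at ex 340/em 450 nm at start and after 30 min at room temperature; data background-normalized.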

The chains behind the UniProt entries cited, without tags or fusion partners. Where a name states a change or a piece, a line headed by the entry shows the natural chain unless it says otherwise.
UniProt Q9BV86: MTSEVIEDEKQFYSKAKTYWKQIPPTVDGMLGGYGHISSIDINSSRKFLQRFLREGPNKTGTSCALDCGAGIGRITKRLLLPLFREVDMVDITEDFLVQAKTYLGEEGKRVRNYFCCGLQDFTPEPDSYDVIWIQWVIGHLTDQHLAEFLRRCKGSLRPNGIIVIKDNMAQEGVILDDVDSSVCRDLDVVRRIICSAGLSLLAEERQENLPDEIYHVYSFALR

Row | Compound | Potency | activity, negative = inhibition
1 | COc1cc2ncnc(Nc3cccc(Cl)c3F)c2cc1OC(=O)N1CCN(C)C[C@H]1C | inconclusive: 34.5 µM [inhibitor, partial curve] | 
2 | CC/C(=C(\c1ccccc1)c1ccc(OCCN(C)C)cc1)c1ccccc1 |  | inactive: -30.2% [at 170 µM]
3 | O=C([C@@H]1CCCN(c2ccc3[nH]c(C4(n5cc(Cl)cn5)CC4)nc3n2)C1)N1CCCC1 | active: 22.1 µM | 
4 | N#C/C(=C\c1ccc(-c2ccc(Cl)c(C(=O)O)c2)o1)c1nc2ccccc2[nH]1 | inconclusive: 38.8 µM [inhibitor, single point] | 
5 | COc1cc(OC)cc(C2=Nn3c(nnc3-c3cccc(OC)c3)SC2)c1 | inconclusive: 27.4 µM [inhibitor, partial curve] | 
6 | CCN(CC)CCCOc1cc2nc(N3CCCN(C)CC3)nc(NC3CCN(C)CC3)c2cc1OC | inconclusive: 12.3 µM [inhibitor, partial curve, poor fit] | 
